Experimental data as given in PMC4682977.

Molecular target: T1, C-terminally Flag-tagged TβRI (TGF-β type I receptor) (UniProt P36897)
T1 sequence: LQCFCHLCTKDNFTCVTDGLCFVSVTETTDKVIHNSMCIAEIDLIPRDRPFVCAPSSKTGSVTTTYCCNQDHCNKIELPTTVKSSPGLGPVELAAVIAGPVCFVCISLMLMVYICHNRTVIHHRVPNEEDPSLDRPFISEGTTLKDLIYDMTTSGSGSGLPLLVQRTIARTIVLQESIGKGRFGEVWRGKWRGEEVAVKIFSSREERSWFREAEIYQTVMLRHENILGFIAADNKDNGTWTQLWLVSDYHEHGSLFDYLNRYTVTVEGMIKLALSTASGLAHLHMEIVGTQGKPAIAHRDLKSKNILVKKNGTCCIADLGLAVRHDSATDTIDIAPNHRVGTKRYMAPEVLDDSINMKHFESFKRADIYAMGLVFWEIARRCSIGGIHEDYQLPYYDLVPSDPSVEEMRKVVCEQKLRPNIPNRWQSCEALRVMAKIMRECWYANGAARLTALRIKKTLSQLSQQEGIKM
Experiment: co-IP; 293T cells coexpressing TβRII and Flag-tagged TβRI with the partner, with or without increasing amounts of p52ShcA-HA or Smad3-myc plasmid, TGF-β-treated; anti-Flag immunoprecipitation of TβRI, immunoblotting of associated proteins; lysis buffer 25 mM Tris-HCl pH 7.5, 150 mM NaCl, 0.7% Triton X-100, 10% glycerol

binding: binds
Substance: C-terminal Myc-Smad3D407E

No constants are given. Whether binding was seen depends on the method and setting. In cells and extracts the contact can be indirect. A result given as binding can be weak or reduced; the word gives no strength. Sequences can lack the tags named with a protein.
